# Measurements reported in PubChem BioAssay AID2685 (National Center for Advancing Translational Sciences (NCATS), 2010).
# The whole screen tested about 320,000 compounds, of which about 2,100 (0.66%) were called active. Inconclusive results, whose numbers are uncertain, are shown with a selection of clear calls. Calls follow the shape of the dose curve; as a rule, active = well fitted inhibition curve with a large enough effect in the signal ratio, with a control signal flat (not every such curve was filed as active); inconclusive = small, poorly fitted or top-dose-only effect, or effect the other way, or a change in a side signal; inactive = flat fitted curve, though single readings scatter; the % refers to the signal ratio. Potencies of inconclusive entries are doubtful fits and often do not repeat.
# Assay: qHTS Assay for Lipid Storage Modulators in Drosophila S3 Cells
# Settings: BODIPY lipid droplet fluorescence, 18-24 h, cells fed with added oleic acid; lipid storage change, negative = inhibition: at 46.1 µM (top of the series) unless noted
# Outline: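 Laser-scanning cytometry quantifies lipid droplet accumulation (500–530 nm total intensity; droplet/cell object ratio) in oleic acid-fed (400 uM added) Drosophila S3 cells treated with a concentration series. 20 uM Triacsin C defined 100% inhibition.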
# % is scaled to controls: 0 for no effect and ±100 for the full control effect; potency is read from the fitted curve at half-maximal effect.
Structure (SMILES),"lipid storage change, negative = inhibition",Potency
COc1ccccc1Nc1nc(-c2ccccc2O)nc2ccccc12,inconclusive: 22.5%,
COc1ccc(NC(=O)c2ccc(NC(=O)CCS(=O)(=O)c3cccs3)cc2)cc1,inconclusive: -198%,
COc1ccccc1NC(=O)CSCc1ccc([N+](=O)[O-])cc1,,"inconclusive: 0.0651 µM [falling, full curve, poor fit]"
Clc1ccc(-c2csc(N3CCC(c4ccccc4)C3)n2)cc1 (stereo not drawn),inconclusive: 15.2%,
Cc1ccc(S(=O)(=O)N(c2nc(NC(C)C)nc(NC(C)C)n2)n2cnnc2)cc1,inconclusive: 18.5%,
CC(C)(C)N(NC(=O)Nc1ccccc1)C(=O)c1ccccc1,inconclusive: 0.216%,
Oc1c(Cl)cc(Cl)cc1CNn1cnnc1,inconclusive: 40.1%,
O=C(NC1CCCc2ccccc21)C1CCN(S(=O)(=O)c2cccc(C(F)(F)F)c2)CC1 (stereo not drawn),,"inconclusive: 10.3 µM [activator, partial curve, poor fit]"
O=C(Nc1nnc(-c2ccc(Cl)cc2)o1)Nc1ccccc1F,,"inconclusive: 14.6 µM [activator, partial curve, poor fit]"
CCc1c(C)[nH]n(-c2nc(-c3cccc([N+](=O)[O-])c3)cs2)c1=O,inconclusive: 12.8%,
O=C1/C(=N\S(=O)(=O)c2cccs2)C([n+]2ccccc2)=C([O-])c2ccccc21,,active: 20.6 µM
O=C(c1cccc([N+](=O)[O-])c1)c1ccc2c(c1)OCCOCCOCCOCCO2,inconclusive: -0.602%,
Cc1nnc(C)n1/N=C/c1cccnc1,,"inconclusive: 0.092 µM [falling, full curve, poor fit]"
CCOC(=O)COn1c2c(c3c4no[n+]([O-])c4ccc31)CCCC2,inconclusive: -73.8%,
Cc1cc(NS(=O)(=O)c2ccc(NC(=S)NC(=O)c3ccc(C(C)(C)C)cc3)cc2)no1,inconclusive: 15.4%,
COc1ccc(CCNC(=O)CSc2nc3[nH]ncc3c(=O)n2-c2ccc(C)c(Cl)c2)cc1OC,inconclusive: -18.1%,
CC1=C(C(=O)Nc2ccc(C(=O)NC(C)c3ccccc3)cc2)SCCO1 (stereo not drawn),inconclusive: -41.7%,
COC(=O)CCNC(=O)c1ccc2[nH]c(C)c(C)c2c1,inconclusive: 17%,
CCOc1ccc2nc(N(CCCN(C)C)C(=O)c3ccc(S(=O)(=O)N4CCCC4)cc3)sc2c1,inconclusive: -1.15%,

Structure (SMILES),"lipid storage change, negative = inhibition",Potency
CC(=O)N(C)c1ccc(NC(=O)N2CCOCC2)cc1,,"inconclusive: 6.51 µM [activator, partial curve, poor fit]"
Nc1nncn1C(=O)c1c(Cl)cccc1Cl,inconclusive: -17.7%,
CCOc1ccc2[nH]c(S(=O)(=O)CC)nc2c1Cl,inconclusive: 1.23%,
CCN1CCN(CC(=O)Nc2ccc(Cl)c(Cl)c2)C(=O)C1=O,inconclusive: 1.35%,
O=C(CCc1ccccc1)Nc1ccccc1F,,"inconclusive: 1.03 µM [falling, partial curve, poor fit]"
O=C(CSc1nnc2scc(-c3ccccc3)n12)Nc1nsc(-c2ccccc2)n1,inconclusive: 16.7%,
Cc1ccc(CONC(=O)c2ccccc2)cc1,inconclusive: -0.0599%,
CCOC(=O)c1sc(NC(=O)CSc2nc3cccnc3n2C)nc1C,inconclusive: -14.3%,
CCOC(=O)c1nnn(CC(=O)N2N=C(c3cc(C)ccc3C)CC2c2ccc(OC)cc2)c1C(=O)OCC (stereo not drawn),inconclusive: 19.1%,
Cc1nc2ccccn2c1C(=O)N/N=C/c1ccc(CNC(=O)C(=O)Nc2ccccc2)o1,,"inconclusive: 23.1 µM [activator, single point]"
Cc1cc(NS(=O)(=O)c2ccc(C(C)C)cc2)no1,,"inconclusive: 29.1 µM [activator, single point]"
CCOCCCNC(=O)c1oc2ccc3c(c2c1C)C(O)CC(C)(C)O3 (stereo not drawn),inconclusive: 7.58%,
COc1ccccc1NC(=S)N(Cc1ccc(C)cc1)Cc1ccccn1,inconclusive: 1.93%,
CC1(C)CC(NC(=O)CSc2ccccc2)CC(C)(C)N1,inconclusive: 46.2%,
O=C(CSc1nnc(NC(=O)c2ccccc2F)s1)NCC1CCCO1 (stereo not drawn),,"inconclusive: 29.1 µM [activator, single point]"
O=C1NCCCCC1NC1CC(=O)N(c2ccccc2)C1=O (stereo not drawn),inconclusive: -12.6%,
Cc1ccc(N(CC(=O)Nc2cc(Cl)ccc2Oc2ccccc2)S(C)(=O)=O)c(C)c1,,"inconclusive: 29.1 µM [rising, single point]"
O=C(O)c1ccccc1S(=O)(=O)Cc1ccccc1,inconclusive: -95%,
O=C(CCN1C(=O)c2ccccc2C1=O)Nc1cccc(S(=O)(=O)N2CCCCC2)c1,,"inconclusive: 3.66 µM [activator, single point]"

# Quoted from the listing.
# O=C(CCN1C(=O)c2ccccc2C1=O)Nc1cccc(S(=O)(=O)N2CCCCC2)c1 | Potency: inconclusive: 3.66 µM [activator, single point]
# COc1ccccc1NC(=S)N(Cc1ccc(C)cc1)Cc1ccccn1 | lipid storage change, negative = inhibition: inconclusive: 1.93%
# O=C(O)c1ccccc1S(=O)(=O)Cc1ccccc1 | lipid storage change, negative = inhibition: inconclusive: -95%
